The values that follow come from PubChem BioAssay AID901 (National Center for Advancing Translational Sciences (NCATS), 2007).

Each structure is given as a SMILES string. “And” between values parts separate entries of the source, which are not always exact repeats. Equal entries are not always repeated. Some of the results follow. Further columns of the screen follow, without active or inactive calls. Most of these compounds were active or inconclusive in the main read-out, so they are no random draw. Words in brackets tell the shape of the fitted curve; partial curves, single points and poor fits give uncertain potencies.

A short description of this experiment: qHTS Assay for Identifying the Cell-Membrane Permeable IMPase Inhibitors. Particulars: CHO-M1 cells, IP1 accumulation, HTRF TR-FRET ratio; measured here: donor channel 620 nm AC50. Background: qHTS replaces the single test concentration by a dilution series.
What is called AC50 is the concentration at which the activity in the assay is half-maximal. In the case of `O=C1c2ccccc2C(=O)C1c1ccnc2ccccc12`, the AC50 is 31.6 µM [rising, single point].

Take `CCC(CC)c1nnc(NC(=O)c2ccc(N3CCCC3=O)cc2)s1`: the AC50 was 1.26 µM [falling, partial curve]. As for `COCCCNc1ccnc2c(Cl)cccc12`, the AC50 was 31.6 µM [falling, single point]. Take `O=C1CC(c2cc(F)cc(F)c2)c2cc3c(cc2N1)OCO3` (configuration not stated): the AC50 was 10 µM [falling, partial curve, poor fit]. As to `O=C(O)Cn1cc(C(=O)c2ccco2)c2ccccc21`, the AC50 was 20 µM [falling, partial curve, poor fit].

For the molecule `CCOC(=O)CNc1c(-c2ccc(OC)cc2)nc2ccc(Cl)cn12`, the AC50 was 0.00398 µM [falling, full curve, poor fit].

Take `CCc1nnc(NC(=O)C2CC(=O)N(c3ccc(C)cc3)C2)s1` (configuration not stated): the AC50 was 0.251 µM [falling, full curve, poor fit]. In the case of `Cc1ccc2nc(SCC(=O)N3c4ccccc4CC3C)c(C)cc2c1` (configuration not stated), the AC50 was 31.6 µM [rising, single point]. Then `O=C(COC(=O)c1cnccn1)NCCc1ccccc1`, with 5.01 µM [falling, single point].

For `COc1ccc(C2=NC(=O)/C(=C\c3cc(OC)c(OC)c(OC)c3)O2)cc1`, the AC50 was 3.55 µM [falling, partial curve].

Turning to `COc1ccc(CN2CCN(C(=O)c3ccco3)CC2)cc1OCc1ccccc1`, the AC50 was 0.00631 µM [rising, full curve, poor fit]. Regarding `O=C(c1ccc(F)cc1)N1CCC(N2CCOCC2)CC1`, the AC50 was 0.0631 µM [rising, full curve, poor fit]. In the case of `COc1ccc(NC(=O)c2c3c(nc4ccccc24)CCC3)cc1`, the AC50 was 0.0158 µM [falling, full curve, poor fit]. Then `Cc1ccccc1N(C(=O)Cc1ccsc1)C(C(=O)NC1CCCCC1)c1ccc(F)cc1` (configuration not stated), with 0.0501 µM [rising, partial curve, poor fit]. The result for `COc1cc(S(=O)(=O)N2CCOCC2)ccc1NC(=O)c1cc2c(s1)CCC2` reads 3.16 µM [falling, full curve]. Regarding `Cc1nc(NC(=O)c2cccc(-c3cc4ccccc4oc3=O)c2)ccc1Br`, the AC50 was 3.98 µM [rising, full curve]. For the molecule `COc1ccc(C2CC(=O)Nc3sc(=N)c4c(N)c(C#N)c(N)nc4c32)cc1OC` (configuration not stated), the AC50 was 31.6 µM [falling, single point]. Then `O=C(CCCOc1ccc(Cl)cc1Cl)N/N=C/c1cccc([N+](=O)[O-])c1`, with 1.26 µM [falling, full curve, poor fit]; and `Cc1ccc(-c2cnc(N)n2C)cc1C`, with 0.501 µM [falling, full curve, poor fit]; and `O=C(COC(=O)c1ccccc1SCC(=O)NC1CCCCC1)NC1CCCCC1`, with 3.16 µM [rising, partial curve, poor fit]. The result for `CCOCCc1nnc(NC(=O)CN2C(=O)c3ccccc3C2=O)s1` reads 15.8 µM [rising, single point]; that for `Cc1ccccc1C(=O)Nc1ccc2oc(-c3ccc(Cl)c(Cl)c3)nc2c1`, 11.2 µM [rising, partial curve]; that for `C/C(=N\NC(=O)C(=O)Nc1cccc(C(F)(F)F)c1)c1ccc(Cl)s1`, 3.98 µM [rising, partial curve, poor fit]. The result for `COC(=O)c1[nH]c2ccc(Cl)cc2c1NC(=O)CN1CCc2cc(OC)c(OC)cc2C1` reads 7.94 µM [falling, partial curve, poor fit]; that for `OC(CNc1ccccc1)COc1ccc(OCC(O)CNc2ccccc2)cc1` (configuration not stated), 1 µM [rising, full curve]; that for `O=S(=O)(c1cccc(-c2nc3ccccc3s2)c1)N1CCCC1`, 5.01 µM [rising, single point]. Turning to `COc1nccnc1NS(=O)(=O)c1ccc(N=Cc2c(C)[nH]n(-c3ccc(C)c(C)c3)c2=O)cc1`, the AC50 is 0.0126 µM [falling, full curve, poor fit]. For the molecule `COc1ccccc1OCC(=O)O`, the AC50 was 63.1 nM [rising, full curve, poor fit] and 794 nM [falling, full curve].

Consider `CCOC(=O)COc1ccc(/C=C2/SC(=Nc3ccccc3)N(Cc3cccnc3)C2=O)cc1OC`, for which the AC50 was 2 µM [falling, partial curve]. On to `Cc1cccc(NC(=O)NCc2ccccn2)c1`, for which the AC50 is 3.98 µM [falling, partial curve, poor fit]. Then `CCc1cc2cc(C(=O)N3CCN(Cc4ccccc4)CC3)sc2s1`, with 0.0398 µM [rising, full curve, poor fit]; and `Cc1sc(NC(=O)C2c3ccccc3Oc3ccccc32)c(C(=O)OC(C)C)c1C`, with 3.16 µM [falling, single point]. `C=CCNC(=S)Nc1sc2c(c1C(=O)OCC)CCN(C(=O)OCC)C2`: the AC50 was 31.6 µM [rising, single point]. Then `O=C(Cn1c(=O)n(Cc2ccco2)c(=O)c2ccccc21)NCC1CCCO1` (configuration not stated), with 0.0501 µM [falling, full curve, poor fit]; and `Cc1ccc(-n2nc3cc(C)c(NC(=O)c4cccnc4)cc3n2)cc1`, with 31.6 µM [rising, single point].

For `O=C(c1ccc2c(c1)OCO2)n1nnc2ccccc21`, the AC50 was 0.01 µM [rising, full curve, poor fit]. The result for `CCCC(c1nnnn1Cc1ccccc1)N1CCN(c2ccccc2OC)CC1` (configuration not stated) reads 5.01 µM [rising, single point]. In the case of `O=C(c1cc(-c2ccco2)on1)N1CCc2ccccc2C1`, the AC50 is 0.158 µM [falling, full curve, poor fit].

As for `O=C(O)c1ccccc1C(=O)N1CC=C(c2ccccc2)CC1`, the AC50 was 2.51 µM [rising, full curve, poor fit].

Consider `Cc1ccc(N/C=C(/C#N)c2ccsc2)cc1`, for which the AC50 is 0.02 µM [falling, full curve, poor fit]. The result for `O=C(c1ccccc1F)N1CCC(O)(c2cccnc2)CC1` reads 15.8 µM [falling, partial curve, poor fit]. The result for `C=CCNC(=O)c1ccc(OC)cc1OC` reads 35.5 µM [falling, single point].
